# Measurements reported in PubChem BioAssay AID2718 (Broad Institute, 2010).
# Chains of the proteins cited; added tags and fusions are not shown. Lines headed by an entry give the natural chain unless they say otherwise; changes in a name come on top.
# UniProt O15379: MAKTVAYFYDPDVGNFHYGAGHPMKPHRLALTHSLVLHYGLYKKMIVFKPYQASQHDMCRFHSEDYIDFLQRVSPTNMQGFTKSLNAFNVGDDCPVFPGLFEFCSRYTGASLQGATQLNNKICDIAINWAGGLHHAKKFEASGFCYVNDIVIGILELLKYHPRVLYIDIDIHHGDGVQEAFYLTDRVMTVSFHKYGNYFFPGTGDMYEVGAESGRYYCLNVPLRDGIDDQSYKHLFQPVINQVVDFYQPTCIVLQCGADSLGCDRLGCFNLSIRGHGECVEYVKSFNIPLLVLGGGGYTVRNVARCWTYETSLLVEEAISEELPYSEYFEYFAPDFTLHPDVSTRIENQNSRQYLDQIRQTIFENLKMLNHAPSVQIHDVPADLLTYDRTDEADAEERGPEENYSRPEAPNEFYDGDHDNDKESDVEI
# In all, about 320,000 compounds went through this assay and about 480 (0.15%) were called active. The inconclusive results got no clear call from the source; some entries with a clear call stand among them for comparison. Cut-off read from the data, not from the text of the source: active = inhibition above about 26% (passing the limit was not always enough); inconclusive = no clear call, values can overlap the other calls.
# Target: Histone deacetylase 3 (Homo sapiens) (UniProt O15379)
# Experiment: HDAC3 deacetylase inhibitors, primary screen, biochemical, fluorescence, cell-free homogeneous (AID 2718)
# Conditions: recombinant HDAC3, fluorogenic peptide/trypsin coupled, at 8.3 µM, active compounds read high
row,SMILES,inhibition
1,COc1ccc2[nH]cc(CCNC(=O)COc3cc(C)cc4oc(=O)cc(C)c34)c2c1,inconclusive: 21.1%
2,COc1cc2c(c(OC)c1OC)-c1c(cc3c(c1OC)OCO3)C1OC2[C@@H](C)[C@H]1C (stereo partly drawn),inconclusive: 14%
3,COc1ccccc1-c1cc(C(=O)N2CCCC2)no1,inconclusive: 18.3%
4,O=C(CSc1c(F)c(F)cc(F)c1F)Nc1ccc(C2SCCS2)cc1,inconclusive: 29%
5,Cc1[nH]ccc(=O)c1Oc1ncc(C(F)(F)F)cc1Cl,inconclusive: 24.3%
6,O=C(Nc1cccc(NC(=O)c2ccccc2Cl)c1)c1ccc(F)cc1,inconclusive: 16.8%
7,C=CC[C@H](CC(=O)N(CCO)Cc1ccccc1)C(=O)N[C@@H](COC(=O)[C@@H](CC=C)Cc1ccc(F)cc1)Cc1ccccc1,active: 40.9%
8,CCN(CC(=O)Nc1cc(S(=O)(=O)N2CCOCC2)ccc1C)Cc1ccccc1,inconclusive: 17.7%
9,CCN(CC)CCCN1C(=O)C(=O)/C(=C(/O)c2ccc(Cl)cc2)C1c1ccccn1 (stereo not drawn),inconclusive: 18.8%
10,CCCCNc1c([N+](=O)[O-])cc(C)cc1[N+](=O)[O-],inconclusive: 17.3%
11,COCCCN1C(=O)C(=O)/C(=C(/O)c2ccc(S(=O)(=O)N3CCCCC3)cc2)C1c1ccc(O)c(OC)c1 (stereo not drawn),inconclusive: 20.4%
12,CCOC(=O)C1=C2SCC(=O)N2C(N)=C(C#N)C1,inconclusive: 26.5%
13,COc1cc(OC)c(N(C)C(=O)c2cn(C)c(=O)c3cc(OC)c(OC)cc23)cc1Cl,active: 53.9%
14,CC(=O)Nc1ccccc1NC(=O)C/C(C)=N/NC(=O)Cc1cccc2ccccc12,inactive: -0.0242%
15,Cc1c(C(=O)N2CCN(c3ccccn3)CC2)oc2c1C(=O)CC(C)(C)C2,inconclusive: 12%
16,Cc1cc2c(N)cccc2nn1,inconclusive: 15.4%
17,NS(=O)(=O)c1ccc(NC(=S)Nc2ccc(OCc3ccccc3)cc2)cc1,inconclusive: 12.1%
18,CCCNC(=O)NC(=O)COc1ccc2oc3ccccc3c2c1,inconclusive: 17.2%
19,Cc1ccc2nc(C)c(C(=O)N/N=C/c3ccc(C(=O)O)cc3)cc2c1,inconclusive: 25.7%
20,O=C(OCC(=O)N(Cc1ccccc1)Cc1ccccc1)c1ccccc1O,inconclusive: 27.9%
21,Cc1cc(C)nc(Nc2cccc(C(F)(F)F)c2)n1,inconclusive: 15.9%
22,CC(C)N(CCNC(=O)c1ccc(OCC2CCCO2)cc1)C(C)C (stereo not drawn),inconclusive: 12.6%
23,CCOc1ccc2c(c1)-c1c(ssc1=S)C(C)(C)N2C,inconclusive: 21.9%

# Quoted at random: 2 compounds from above, in no set order.
row,SMILES,inhibition
9,CCN(CC)CCCN1C(=O)C(=O)/C(=C(/O)c2ccc(Cl)cc2)C1c1ccccn1 (stereo not drawn),inconclusive: 18.8%
5,Cc1[nH]ccc(=O)c1Oc1ncc(C(F)(F)F)cc1Cl,inconclusive: 24.3%
